Laboratory results: PubChem BioAssay AID1224826 (NIAID, 2016)
Here is an unselected part of about 17,000 reagents tested. In the full data, about 1,110 (6.6%) are marked active. 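Active means lowered or raised reporter signal; replicate intensities are raw and not normalised per plate.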 A number with no mark means an inactive call. Further read-outs or replicates are left out here.

Screen: 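Genes that change LPS-induced Tnf promoter activity in mouse macrophages when knocked down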 (primary screen)
System: RAW264.7 G9 macrophages from mouse bearing reporters for p65 (GFP) and the Tnf promoter (mCherry)
Reagent: siRNA pool against mouse genes, 100 nM
Time to read-out: 16 h of LPS stimulation, after 2 days of siRNA transfection
Treatment: bacterial lipopolysaccharide (Salmonella minnesota R595), 10 ng/ml
Detection: 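Imaged Tnf reporter mCherry in nuclei, minus background, normalised per plate to the median and expressed as robust z-scores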
Direction: Tnf reporter robust z-score: higher = stronger Tnf promoter reporter signal after LPS
Active means: 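Called active when robust z-score is at most -1.3, matching the median of the Tlr4 knock-down control, or over 3; control wells and wells with under 50 cells never active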
Calls: active = Tnf reporter clearly lowered or raised; inactive = no clear change in Tnf reporter

Silencing of Cdip1 (GeneID 66626) resulted in: Tnf reporter robust z-score 0.64; fewer than 50 cells in well enough cells in well.
Dpp8 (GeneID 74388) gave Tnf reporter robust z-score -1.15; fewer than 50 cells in well enough cells in well.
Tesmin (GeneID 17771) scored Tnf reporter robust z-score -0.2; fewer than 50 cells in well enough cells in well.
Silencing of Plekhg4 (GeneID 102075) came out at: Tnf reporter robust z-score -0.88; fewer than 50 cells in well enough cells in well.
After knock-down of Cog6 (GeneID 67542), the record shows Tnf reporter robust z-score -0.9; fewer than 50 cells in well enough cells in well.
With knock-down of Npff (GeneID 54615), the record shows Tnf reporter robust z-score -1.92 (active); fewer than 50 cells in well enough cells in well.
Against Angel2 (GeneID 52477) the deposit lists Tnf reporter robust z-score -0.4; fewer than 50 cells in well enough cells in well.
Tor1aip1 (GeneID 208263) scored Tnf reporter robust z-score -0.64; fewer than 50 cells in well enough cells in well.
Yeats4 (GeneID 64050) gave Tnf reporter robust z-score -0.29; fewer than 50 cells in well enough cells in well.

Ordered by “Tnf reporter robust z-score” (highest first): 2 of the entries above
Angel2 (GeneID 52477) — Tnf reporter robust z-score: -0.4; fewer than 50 cells in well: enough cells in well
Npff (GeneID 54615) — Tnf reporter robust z-score: -1.92 (active); fewer than 50 cells in well: enough cells in well

The list goes on.
Against F5 (GeneID 14067), the entry reads Tnf reporter robust z-score -0.08; fewer than 50 cells in well enough cells in well.
Haus3 (GeneID 231123) gave Tnf reporter robust z-score 0.8; fewer than 50 cells in well enough cells in well.
Against Kmt5b (GeneID 225888), the values are Tnf reporter robust z-score 1.49; fewer than 50 cells in well enough cells in well.
Dleu7 (GeneID 239133) showed Tnf reporter robust z-score -0.53; fewer than 50 cells in well enough cells in well.
Depletion of Syn2 (GeneID 20965) resulted in: Tnf reporter robust z-score 6.74 (active); fewer than 50 cells in well enough cells in well.
With knock-down of Nosip (GeneID 66394), the screen gave Tnf reporter robust z-score 0.19; fewer than 50 cells in well enough cells in well.
Or9g19 (GeneID 258757) scored Tnf reporter robust z-score 0.89; fewer than 50 cells in well enough cells in well.
Mtx2 (GeneID 53375) showed Tnf reporter robust z-score 0.16; fewer than 50 cells in well enough cells in well.
For Pgm3 (GeneID 109785), the entry reads Tnf reporter robust z-score 0.96; fewer than 50 cells in well enough cells in well.
Capn10 (GeneID 23830) scored Tnf reporter robust z-score 1.4; fewer than 50 cells in well enough cells in well.
Mphosph8 (GeneID 75339) gave fewer than 50 cells in well fewer than 50 cells per well; well left out of calls.
After knock-down of Ubxn2a (GeneID 217379), the record shows Tnf reporter robust z-score 1.14; fewer than 50 cells in well enough cells in well.
